Laboratory results reported in PubChem BioAssay AID504327 (National Center for Advancing Translational Sciences (NCATS), 2011).
Out of some 390,000 compounds screened, about 820 (0.21%) were called active. This list was built around the results that the source calls inconclusive (neither active nor inactive); the mix of calls is not that of the screen. The call rests on the fitted dose curve; in most records, active means well fitted inhibition curve with a large enough effect; inconclusive means small, poorly fitted or top-dose-only effect, or another doubt; inactive means no such curve, though single readings can be large or run the other way. A potency beside an inconclusive call is a rough fit, not a confirmed value.

Chains of the proteins cited; added tags and fusions are not shown.
UniProt Q92830, whole entry, looked up: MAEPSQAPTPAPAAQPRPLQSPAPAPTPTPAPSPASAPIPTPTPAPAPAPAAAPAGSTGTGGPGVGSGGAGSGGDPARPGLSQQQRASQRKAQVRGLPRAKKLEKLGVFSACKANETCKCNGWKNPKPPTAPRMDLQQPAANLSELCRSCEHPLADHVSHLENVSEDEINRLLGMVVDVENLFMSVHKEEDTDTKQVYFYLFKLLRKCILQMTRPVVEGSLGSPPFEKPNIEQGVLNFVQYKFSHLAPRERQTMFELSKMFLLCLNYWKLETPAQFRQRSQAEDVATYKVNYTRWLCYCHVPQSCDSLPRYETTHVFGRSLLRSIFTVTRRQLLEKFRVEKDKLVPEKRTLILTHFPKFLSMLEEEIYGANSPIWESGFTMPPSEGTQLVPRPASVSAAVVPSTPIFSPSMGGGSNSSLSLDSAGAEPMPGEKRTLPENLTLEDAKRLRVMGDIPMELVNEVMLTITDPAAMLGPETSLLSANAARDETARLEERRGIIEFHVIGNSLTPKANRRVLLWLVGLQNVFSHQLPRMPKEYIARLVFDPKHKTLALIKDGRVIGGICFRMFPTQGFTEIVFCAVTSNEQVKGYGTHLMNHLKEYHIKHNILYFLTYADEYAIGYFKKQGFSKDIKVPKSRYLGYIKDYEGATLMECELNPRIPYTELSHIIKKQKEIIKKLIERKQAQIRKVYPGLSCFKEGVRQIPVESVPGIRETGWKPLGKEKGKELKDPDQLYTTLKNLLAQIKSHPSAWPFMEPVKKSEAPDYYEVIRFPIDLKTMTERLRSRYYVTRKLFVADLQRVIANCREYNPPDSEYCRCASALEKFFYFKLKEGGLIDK

Molecular target: Histone acetyltransferase KAT2A (Homo sapiens) (UniProt Q92830)
Test: qHTS Assay for Inhibitors of GCN5L2
Conditions: GCN5L2 HAT assay, ThioGlo1 CoA-SH fluorescence; activity change, negative = inhibition: at 58.9 µM (top of the series) unless noted
Source text: Histone acetyltransferase (HAT) enzymes transfer a […] group from acetyl-coenzyme A to the epsilon-amino group of conserved lysine residues of N-terminal histone tails. Acetylation results in charge neutralization of this positively charged amino acid, decreasing interactions with the […] backbone and making the DNA more accessible for transcription. HATs have been recognized as an emerging drug target for treatment of cancer, diabetes, asthma, chronic obstructive pulmonary disease, cardiac disease, and viral infection. Protein identified with HAT activity include the […] like 2 (GCN5L2, a.ka. Histone acetyltransferase KAT2A) which acetylates histone H3 at Lys9, 14, 18, 13, and to lesser extent histones H4 and H2B. This activates transcription of the gene by modulating chromatin structure and installing the acetyllysine recognition mark for bromodomain-containing coactivator proteins.
A quantitative high throughput screen was developed to identify small molecule inhibitors. The assay is based on the principle that it measures formation of reduced CoA with the pro-fluorescent maleimide derivative ThioGlo1 that becomes fluorescent upon reaction with the free thiol of CoA.
A large number of artifacts are expected in this primary screen, compounded by the assay format (fluorescent artifacts) and by the high top concentration tested for each substance. This BioAssay data deposition should be used with caution, and counterscreen and secondary assay validation is essential since very few actives from the primary screen are expected to be true inhibitors of GCN5L2.
[2] Yasgar, et al. Compound Management for Quantitative High-Throughput Screening. JALA. 2008 Apr;13(2):79-89.
[3] Inglese, et al. Quantitative high-throughput screening: a titration-based approach that efficiently identifies biological activities in large chemical libraries. Proc Natl Acad Sci. 1;103(31):11473-8. 2006. PMID: 16864780
NIH Molecular Libraries Probe Production Network [MLPCN]
NIH Chemical Genomics Center [NCGC]
Structural Genomics Consortium (SGC)
To each well of a 1,536w plate, 3ul of GCN5L2 (final concentration 20nM, in 50mM HEPES, 0.1mM EDTA (pH 7.5), 0.01% Tween-20 buffer) are added using a Kalypsys dispenser. Only buffer is added to some wells as a control. A Kalypsys pin-tool transferred 23nl of library compound solution in DMSO to each well, as well as the control inhibit garcinol. . Following a 15 min incubation of enzyme with compounds at room temperature, 1ul mixture of ThioGlo1 (50uM final), H3(1-25) peptide (75uM final), and Acetyl-CoA (70uM final) is added. Plates are read immediately on the ViewLux (PerkinElmer) (Ex340nm/Em540nm) for a 0 min read, incubated for 20 min at room temperature, and read again on the ViewLux with the same settings. The initial read was carried out to identify compounds that are potentially fluorescent.
On the % scale 0 is the no-effect control and ±100 the full control effect; potency means the concentration at half of the fitted maximal effect.

Row | SMILES | Potency | activity change, negative = inhibition
1 | Cc1cccn2c(=O)c3cc(C#N)c(=O)n(-c4nnc(SCc5ccc(Cl)cc5)s4)c3nc12 | inconclusive: 35.5 µM [inhibitor, partial curve] | 
2 | COC(=O)c1oc2ccc(Cl)cc2c1-n1cccc1 | inconclusive: 35.5 µM [inhibitor, partial curve, poor fit] | 
3 | COc1cccc(N2CCN(C(=O)c3cc4c(s3)-c3ccccc3OC4)CC2)c1 | inconclusive: 44.7 µM [inhibitor, single point] | 
4 | CCc1ccc(NC(=O)/C(C#N)=C\c2ccc(OC)c(C(=O)O)c2)cc1 | inactive | 
5 | Cc1ccccc1NC(=O)Cc1nc(COC(=O)c2ccc(NC(N)=O)cc2)cs1 | inactive | 
6 | O=C(Cn1ncc2c3ccccc3n(Cc3cccc(Cl)c3)c2c1=O)Nc1ccc(F)cc1F | inconclusive: 15.8 µM [inhibitor, partial curve] | 
7 | O=C(/C=C/c1ccccc1)NNC(=O)C1CC1 |  | inconclusive: -98.2% [inhibitor] [at 0.501 µM]
8 | CC12C(=O)N(c3ccccc3)C(=O)C1C(c1ccccc1)N1CCCN12 (stereo not drawn) | inconclusive: 0.355 µM [inhibitor, partial curve, poor fit] | 
9 | CCOc1ccc(CN2CCN(CCCn3cccn3)CC2CCO)cc1 (stereo not drawn) | inconclusive: 0.447 µM [inhibitor, partial curve, poor fit] | 
10 | O=C(Nc1cccc(Cl)c1)c1nc[nH]c1C(=O)N1CCc2ccccc2C1 | inconclusive: 39.8 µM [inhibitor, single point] | 
11 | Oc1ccccc1N1CCN(c2nc(-c3cccs3)nc3ccccc23)CC1 | inconclusive: 25.1 µM [inhibitor, single point] | 
12 | c1ccc(C[n+]2c(-c3ccccc3)csc2Nc2ccccc2)cc1 | inactive | 
13 | Cc1ccc(Cn2c(CO)cnc2SCC(=O)Nc2ccc(C)c(Cl)c2)cc1 | inconclusive: 0.708 µM [inhibitor, full curve, poor fit] | 
14 | CCc1ccc(C(C)(O)C(CN2CCOCC2)c2ccccc2)cc1 (stereo not drawn) | inconclusive: 17.8 µM [inhibitor, partial curve] | 
15 | Cc1ccc(S(=O)(=O)N2CCC(C(=O)N3CCc4ccccc43)CC2)cc1 | inactive | 
16 | Cc1cc(C)nc(NS(=O)(=O)c2ccc(NC(=O)c3ccc(S(=O)(=O)N4CC(C)OC(C)C4)cc3)cc2)n1 (stereo not drawn) | inconclusive: 3.98 µM [inhibitor, single point] | 
17 | COC(=O)c1ccc(OC(=O)/C=C/c2ccco2)cc1 | inactive | 
18 | CC1(CCc2ccccc2)NC(=S)N(c2ccccc2)N1 (stereo not drawn) | inconclusive: 35.5 µM [inhibitor, single point] | 
19 | COc1ccc(Cl)cc1NC(=O)Cn1cc(C(=O)c2ccc(C)cc2)c(=O)c2ccc(C)nc21 | inconclusive: 14.1 µM [inhibitor, partial curve] | 
20 | Cn1c(=O)c2c(O)c(Cc3ccccc3)c(=O)[nH]c2n(C)c1=O | inactive | 
21 | O=C1C=C(O)c2cccc(O)c2C1=O | inconclusive: 8.91 µM [inhibitor, partial curve] | 
22 | CCS(=O)(=O)C1=NN2C(=N)/C(=C\c3ccc(OS(=O)(=O)c4ccccc4)cc3)C(=O)N=C2S1 | active: 14.1 µM | 
23 | Cc1ccc2cc(C#N)c(N3CCCC3)nc2c1C | inactive | 

Single records, as listed above:
O=C(Nc1cccc(Cl)c1)c1nc[nH]c1C(=O)N1CCc2ccccc2C1 is listed with Potency: inconclusive: 39.8 µM [inhibitor, single point]
Cc1cc(C)nc(NS(=O)(=O)c2ccc(NC(=O)c3ccc(S(=O)(=O)N4CC(C)OC(C)C4)cc3)cc2)n1 (stereo not drawn) is listed with Potency: inconclusive: 3.98 µM [inhibitor, single point]
CCS(=O)(=O)C1=NN2C(=N)/C(=C\c3ccc(OS(=O)(=O)c4ccccc4)cc3)C(=O)N=C2S1 is listed with Potency: active: 14.1 µM

(more compounds)

Row | SMILES | Potency | activity change, negative = inhibition
24 | Cc1noc(C)c1C(=O)N1CCN(C(=O)c2sc3cc(Cl)ccc3c2Cl)CC1 | inconclusive: 8.91 µM [inhibitor, single point] | 
25 | COC(=O)c1c(NC(C)=O)sc(Cc2ccccc2)c1C | inconclusive: 39.8 µM [inhibitor, single point] | 
26 | CC(C)C[C@H](NC(=O)c1[nH]cnc1C(=O)N[C@@H](Cc1ccccc1)C(=O)OC(C)(C)C)C(=O)OCc1ccccc1 | inconclusive: 3.98 µM [inhibitor, single point] | 
27 | CCC(C(=O)Nc1nc(C)c(C)s1)c1ccccc1 (stereo not drawn) | inconclusive: 25.1 µM [inhibitor, single point] | 
28 | CC(=O)N1CSCC1C(=O)NNS(=O)(=O)c1ccccc1 (stereo not drawn) | inconclusive: 39.8 µM [inhibitor, single point] | 
29 | CCOC(=O)N1CCN(C(c2ccc(Cl)cc2)c2sc3nc(C)nn3c2O)CC1 (stereo not drawn) | inconclusive: 39.8 µM [inhibitor, single point] | 
30 | N#C/C(=C\c1c[nH]c2ccccc12)C(N)=O | inconclusive: 2 µM [inhibitor, partial curve, poor fit] | 
31 | CN(CC(=O)Nc1ccc(Cl)cc1)C(=O)CNC(=O)c1ccc2ccccc2c1 | inconclusive: 35.5 µM [inhibitor, single point] | 
32 | COCCn1c(=O)c(-c2cn(C)c3ccccc23)nc2cnc(Oc3ccccc3)nc21 | inconclusive: 11.2 µM [inhibitor, partial curve] | 
33 | O=c1c2[nH]c3ccc(F)cc3c2ncn1CC1CCCO1 (stereo not drawn) | inconclusive: 39.8 µM [inhibitor, single point] | 
34 | CC(=O)N1c2ccc(S(=O)(=O)N3CCCCC3)cc2CC1C(=O)NCc1ccccc1C (stereo not drawn) | inconclusive: 39.8 µM [inhibitor, single point] | 
35 | O=C(c1cc(-c2ccco2)on1)N1CCN(C(c2ccccc2)c2ccccc2)CC1 | inactive | 
36 | CCOc1ccc(S(=O)(=O)/N=C(/c2ccccc2)N(C)C)cc1 | inconclusive: 35.5 µM [inhibitor, single point] | 
37 | COCCCNC(=O)c1ccc(-n2nc(C(F)(F)F)cc2-c2cccs2)cc1 | inactive | 
38 | CC(C)(C)c1cc(OC(=O)C2CCCC2)ccc1O | inconclusive: 4.47 µM [inhibitor, full curve, poor fit] | 
39 | COCCn1c(C)cc(C2=NNC(=NC3CC3)SC2)c1C | inactive | 
40 | COC(=O)c1nc2nc(-c3cccs3)cc(C(F)(F)F)n2n1 | inconclusive: 17.8 µM [inhibitor, partial curve] | 
41 | Cc1noc(C)c1CSCC(=O)Nc1nc2c(F)cc(F)cc2s1 | inconclusive: 31.6 µM [inhibitor, single point] | 
42 | COc1cc(/C=C2\SC(=S)N(CCCCC(=O)O)C2=O)ccc1OS(=O)(=O)c1ccc(C)cc1 | inconclusive: 28.2 µM [inhibitor, partial curve] | 
43 | Cc1cc(Br)c(OCc2ccc(C(=O)N/N=C/c3ccc[nH]3)cc2)c(Br)c1 | inconclusive: 39.8 µM [inhibitor, single point] | 
44 | COc1ccc(C(=O)NC2CCN(C(=S)NCCc3ccccc3)CC2)cc1 | inconclusive: 5.62 µM [inhibitor, single point] | 
45 | Cc1ccc(-c2nn(-c3ccccc3)cc2/C=C2\SC(=S)N(CC(=O)O)C2=O)cc1 | inconclusive: 31.6 µM [inhibitor, single point] | 
46 | C#CCOCCOCCOCCNc1nc(N2CCN(C(=O)CCCCCCCCCCNC(=O)Cn3cc(CCCCCN)nn3)CC2)nc(N2CCN(C(=O)CCCCCCCCCCNC(=O)[C@H]([C@@H](C)CC)n3cc(CCCCN=C(N)N)nn3)CC2)n1 | inactive | 

Row | SMILES | Potency | activity change, negative = inhibition
47 | FC(F)(F)c1cc(C(F)(F)F)c2ccc(N/N=C/c3ccccc3)nc2n1 | inactive | 
48 | Cc1nc(Nc2ccc3c(c2)OCCO3)c2c(C)c(C)sc2n1 | inactive | 
49 | C=CC[n+]1c(C)csc1Nc1ccc(C(=O)O)cc1 | inactive | 
50 | O=C(O)CCCC(=O)N1CCc2cc(S(=O)(=O)NCc3ccc(F)cc3)ccc21 | inactive | 
51 | FC(F)(F)c1ccc(C2[C@H]3CN(Cc4ccc(-c5ccccc5)cc4)[C@H](c4ccccc4)C34CC2(c2ccccc2)C4)cc1 (stereo partly drawn) | inactive | 
52 | CCC(Oc1ccccc1)C(=O)Nc1ccccc1N1CCCCC1 (stereo not drawn) | inconclusive: 7.08 µM [inhibitor, single point] | 
53 | CCCn1c(SCC(=O)NC(=O)NCc2ccco2)n[nH]c1=O | inconclusive: 39.8 µM [inhibitor, single point] | 
54 | COC(=O)c1cc(N2C(=O)C3C(C2=O)C2(C)C=CC3(C)O2)ccc1Cl (stereo not drawn) | inconclusive: 28.2 µM [inhibitor, single point] | 
55 | CCc1ccc(Nc2n[n+](C)c(-c3ccncc3)s2)cc1 | inconclusive: 6.31 µM [inhibitor, single point] | 
56 | COc1ccccc1CNCCS(=O)(=O)NN1CCOCC1 | inactive | 
57 | COc1c(Cl)cc(C(=O)Nc2ccccc2-c2ccccc2)cc1Cl | inconclusive: 7.08 µM [inhibitor, single point] | 
58 | Cc1cc(C(=O)Nc2cc(C)on2)on1 | inconclusive: 3.98 µM [inhibitor, single point] | 
59 | COc1ccc(S(=O)(=O)N(CCC(N)=O)Cc2ccco2)cc1OC | inconclusive: 31.6 µM [inhibitor, single point] | 
60 | CCCN(CCC)S(=O)(=O)c1ccc(NS(C)(=O)=O)cc1 | inactive | 
61 | c1ccc(-c2nnsc2Sc2ccccn2)cc1 | inactive | 
62 | COc1ccc(Cl)cc1NC(=O)CCS(=O)(=O)c1cccc2nonc12 | inactive | 
63 | O=C(Nc1ccnn1C1CCN(C/C=C/c2ccccc2)CC1)c1cccc(F)c1 | inconclusive: 3.16 µM [inhibitor, partial curve] | 
64 | O=C(Nc1ccc(O)c(-c2nc3ccccc3o2)c1)C1(c2ccccc2)CCCC1 | inconclusive: 31.6 µM [inhibitor, single point] | 
65 | Cc1ccc2c(c1)c(CC(NC(=O)c1ccccc1Oc1ccccc1)C(=O)O)cn2C(=O)OCc1ccccc1 (stereo not drawn) | active: 10 µM | 
66 | COc1ccc(C(=O)Nc2ccc(OCC(F)(F)C(F)F)c(C(F)(F)F)c2)cc1OC | inconclusive: 39.8 µM [inhibitor, single point] | 
67 | CN1/C(=C\C(=O)Nc2ccc(Cl)cc2)C(C)(C)c2ccccc21 | inactive | 
68 | CN1CCC(=NNC(=O)c2ccco2)CC1 | inconclusive: 0.708 µM [inhibitor, full curve] | 
